The subject of this assay is CD8F1 mice, subcutaneous mammary adenocarcinoma, T/C%. Description: NCI In Vivo Anticancer Drug Screen. Data for tumor model Mammary Adenocarcinoma CD8F1 (subcutaneous) in CD8F1. The conditions noted are these: higher T/C = larger tumour. How it is done:
The antitumor activity of compounds was measured in mice bearing transplantable tumors. Survival or tumor size were measured and the results are expressed as the measurement made in the treated group (T) divided by the measurement made in the vehicle treated control group (C). The tumor model used in this assay is Mammary Adenocarcinoma CD8F1 (subcutaneous) in CD8F1

Where [1] appears, read: T/C endpoint: median tumor weight (est.), dose: 12.5 mg/kg/injection, schedule: Q07DX005 (ip), vehicle: Klucel (hydroxypropylcellulose) (HPC), evaluated on day 30.
Where [2] appears, read: T/C endpoint: median tumor weight (est.), dose: 25.0 mg/kg/injection, schedule: Q07DX005 (ip), vehicle: Klucel (hydroxypropylcellulose) (HPC), evaluated on day 30.
The mark [3] stands for this setting: T/C endpoint: median tumor weight (est.), dose: 50.0 mg/kg/injection, schedule: Q07DX005 (ip), vehicle: Klucel (hydroxypropylcellulose) (HPC).
[4] abbreviates: T/C endpoint: median tumor weight (est.), dose: 100.0 mg/kg/injection, schedule: Q07DX005 (ip), vehicle: Klucel (hydroxypropylcellulose) (HPC).

The list shows only some results of the screen, not a fair sample: it gathers some chemical classes. Not every dose and run of a compound is shown. T/C: endpoint of the treated group in % of that of the vehicle group. Schedules are NCI's codes, taken here to give the interval after Q, in days (D) or hours (H), and the number of doses after X. Some T/C values carry the count of animals alive at the toxicity check; where neither a count nor a note follows, no animal had died by that day. Some entries were tested several times; the results are listed from low to high. Some complexes appear as separate parts, the way the source draws them; their charges need not add up. Some entries give survivors of the animals treated and no T/C: the source files T/C as zero there, which appears to mark a toxic dose or a test without result, not a measured value. Counts of survivors are from the toxicity check, whose day is not always given; animals may have died later.

As to `ICCN(CCI)c1cccc2ccccc12`, the T/C (T/C endpoint: median tumor weight (est.), dose: 0.37 mg/kg/injection, schedule: Q07DX005 (ip), vehicle: Klucel (hydroxypropylcellulose) (HPC), evaluated on day 30) is 127 % of control; the T/C (T/C endpoint: median tumor weight (est.), dose: 0.75 mg/kg/injection, schedule: Q07DX005 (ip), vehicle: Klucel (hydroxypropylcellulose) (HPC), evaluated on day 30) is 85 % of control; the T/C (T/C endpoint: median tumor weight (est.), dose: 0.78 mg/kg/injection, schedule: Q07DX005 (ip), vehicle: Klucel (hydroxypropylcellulose) (HPC), evaluated on day 30) was 160 % of control; the T/C (T/C endpoint: median tumor weight (est.), dose: 1.5 mg/kg/injection, schedule: Q07DX005 (ip), vehicle: Klucel (hydroxypropylcellulose) (HPC), evaluated on day 30) was 51 % of control; the T/C (T/C endpoint: median tumor weight (est.), dose: 1.56 mg/kg/injection, schedule: Q07DX005 (ip), vehicle: Klucel (hydroxypropylcellulose) (HPC), evaluated on day 30) was 122 % of control; the T/C (T/C endpoint: median tumor weight (est.), dose: 3.0 mg/kg/injection, schedule: Q07DX005 (ip), vehicle: Klucel (hydroxypropylcellulose) (HPC), evaluated on day 30) is 66 % of control [9 of 10 alive on day 30]. The T/C reads like this: (T/C endpoint: median tumor weight (est.), dose: 3.12 mg/kg/injection, schedule: Q07DX005 (ip), vehicle: Klucel (hydroxypropylcellulose) (HPC), evaluated on day 30) 136 % of control; (T/C endpoint: median tumor weight (est.), dose: 6.25 mg/kg/injection, schedule: Q07DX005 (ip), vehicle: Klucel (hydroxypropylcellulose) (HPC), evaluated on day 30) 106 [9 of 10 alive on day 30] and 154 % of control; (T/C endpoint: median tumor weight (est.), dose: 12.5 mg/kg/injection, schedule: Q01DX005 (ip), vehicle: Klucel (hydroxypropylcellulose) (HPC), evaluated on day 34) 66 % of control; under setting [1], 128 % of control; (T/C endpoint: median tumor weight (est.), dose: 25.0 mg/kg/injection, schedule: Q01DX005 (ip), vehicle: Klucel (hydroxypropylcellulose) (HPC), evaluated on day 34) 27 % of control; under setting [2], 105 % of control. Moreover, the survivor count was 3 of 10 on day 30 (T/C endpoint: median tumor weight (est.), dose: 6.0 mg/kg/injection, schedule: Q07DX005 (ip), vehicle: Klucel (hydroxypropylcellulose) (HPC)); 6 of 10 on day 30 (T/C endpoint: median tumor weight (est.), dose: 6.25 mg/kg/injection, schedule: Q07DX005 (ip), vehicle: Klucel (hydroxypropylcellulose) (HPC)); 0 of 10 on day 30 and 5 of 10 on day 30 (T/C endpoint: median tumor weight (est.), dose: 12.5 mg/kg/injection, schedule: Q07DX005 (ip), vehicle: Klucel (hydroxypropylcellulose) (HPC)); 0 of 10 on day 30 and 2 of 10 on day 30 (T/C endpoint: median tumor weight (est.), dose: 15.0 mg/kg/injection, schedule: Q07DX005 (ip), vehicle: Klucel (hydroxypropylcellulose) (HPC)); 0 of 10 on day 30 (T/C endpoint: median tumor weight (est.), dose: 25.0 mg/kg/injection, schedule: Q07DX005 (ip), vehicle: Klucel (hydroxypropylcellulose) (HPC)); 0 of 10 on day 30 (T/C endpoint: median tumor weight (est.), dose: 30.0 mg/kg/injection, schedule: Q07DX005 (ip), vehicle: Klucel (hydroxypropylcellulose) (HPC)). Moreover, the survivor count by setting is: under setting [3], 0 of 10 on day 30 and 6 of 10; (T/C endpoint: median tumor weight (est.), dose: 60.0 mg/kg/injection, schedule: Q07DX005 (ip), vehicle: Klucel (hydroxypropylcellulose) (HPC)) 0 of 10 on day 30; under setting [4], 0 of 10 on day 30; (T/C endpoint: median tumor weight (est.), dose: 120.0 mg/kg/injection, schedule: Q07DX005 (ip), vehicle: Klucel (hydroxypropylcellulose) (HPC)) 0 of 10 on day 30; (T/C endpoint: median tumor weight change, dose: 15.62 mg/kg/injection, schedule: Q01DX001 (ip), vehicle: Klucel (hydroxypropylcellulose) (HPC)) 3 of 10 on day 30; (T/C endpoint: median tumor weight change, dose: 31.0 mg/kg/injection, schedule: Q01DX001 (ip), vehicle: Klucel (hydroxypropylcellulose) (HPC)) 4 of 9 on day 28. For the same compound, the survivor count (T/C endpoint: median tumor weight change, dose: 31.25 mg/kg/injection, schedule: Q01DX001 (ip), vehicle: Klucel (hydroxypropylcellulose) (HPC)) is recorded as 5 of 10 on day 30; the survivor count (T/C endpoint: median tumor weight change, dose: 62.0 mg/kg/injection, schedule: Q01DX001 (ip), vehicle: Klucel (hydroxypropylcellulose) (HPC)) was 3 of 9 on day 28; the survivor count (T/C endpoint: median tumor weight change, dose: 62.5 mg/kg/injection, schedule: Q01DX001 (ip), vehicle: Klucel (hydroxypropylcellulose) (HPC)) is 1 of 10 on day 30; the survivor count (T/C endpoint: median tumor weight change, dose: 125.0 mg/kg/injection, schedule: Q01DX001 (ip), vehicle: Klucel (hydroxypropylcellulose) (HPC)) was 0 of 10 on day 30 and 2 of 9 on day 28; the survivor count (T/C endpoint: median tumor weight change, dose: 250.0 mg/kg/injection, schedule: Q01DX001 (ip), vehicle: Klucel (hydroxypropylcellulose) (HPC)) was 0 of 9 on day 28 and 2 of 10 on day 30; the survivor count (T/C endpoint: median tumor weight change, dose: 500.0 mg/kg/injection, schedule: Q01DX001 (ip), vehicle: Klucel (hydroxypropylcellulose) (HPC)) was 0 of 10 on day 30 and 0 of 9 on day 28.

Take `NC(=O)Nc1ccc(N(CCCl)CCCl)cc1`: the T/C under setting [1] is 60 [9 of 10 alive on day 30] and 91 % of control; the T/C under setting [2] was 57 and 123 % of control; the T/C (T/C endpoint: median tumor weight (est.), dose: 50.0 mg/kg/injection, schedule: Q07DX005 (ip), vehicle: Klucel (hydroxypropylcellulose) (HPC), evaluated on day 30) is 32 % of control [7 of 10 alive]. Besides, the survivor count is reported as 4 of 10 on day 30 under setting [3] and 0 of 10 on day 30 under setting [4].

As to `[Au].[C-]#N.[C-]#N`, the T/C is, setting by setting: (T/C endpoint: median tumor weight change, dose: 3.0 mg/kg/injection, schedule: Q01DX001 (ip), vehicle: saline, evaluated on day 32) 117 % of control; (T/C endpoint: median tumor weight change, dose: 3.12 mg/kg/injection, schedule: Q01DX001 (ip), vehicle: saline, evaluated on day 29) 79 % of control; (T/C endpoint: median tumor weight change, dose: 6.0 mg/kg/injection, schedule: Q01DX001 (ip), vehicle: saline, evaluated on day 32) 94 % of control; (T/C endpoint: median tumor weight change, dose: 6.25 mg/kg/injection, schedule: Q01DX001 (ip), vehicle: saline, evaluated on day 29) 70 % of control; (T/C endpoint: median tumor weight change, dose: 12.0 mg/kg/injection, schedule: Q01DX001 (ip), vehicle: saline, evaluated on day 32) 121 % of control; (T/C endpoint: median tumor weight change, dose: 12.5 mg/kg/injection, schedule: Q01DX001 (ip), vehicle: saline, evaluated on day 28) 75 % of control [9 of 10 alive on day 28]. Moreover, the T/C (T/C endpoint: median tumor weight change, dose: 12.5 mg/kg/injection, schedule: Q01DX001 (ip), vehicle: saline, evaluated on day 29) is 67 % of control. Moreover, the survivor count is on record as 0 of 10 on day 28, 1 of 10 on day 28, 1 of 10 on day 32 (T/C endpoint: median tumor weight change, dose: 25.0 mg/kg/injection, schedule: Q01DX001 (ip), vehicle: saline); 0 of 10 on day 28 (T/C endpoint: median tumor weight change, dose: 50.0 mg/kg/injection, schedule: Q01DX001 (ip), vehicle: saline); 0 of 10 on day 28 (T/C endpoint: median tumor weight change, dose: 100.0 mg/kg/injection, schedule: Q01DX001 (ip), vehicle: saline); 0 of 10 on day 28 (T/C endpoint: median tumor weight change, dose: 200.0 mg/kg/injection, schedule: Q01DX001 (ip), vehicle: saline).

With `Cc1ccc(Sc2ccc([N+](=O)[O-])cc2[N+](=O)[O-])c([N+](=O)[O-])c1`, the T/C reads like this: (T/C endpoint: median tumor weight change, dose: 125.0 mg/kg/injection, schedule: Q01DX001 (ip), vehicle: Klucel (hydroxypropylcellulose) (HPC), evaluated on day 35) 128 % of control; (T/C endpoint: median tumor weight change, dose: 250.0 mg/kg/injection, schedule: Q01DX001 (ip), vehicle: Klucel (hydroxypropylcellulose) (HPC), evaluated on day 35) 117 % of control [9 of 10 alive on day 35]; (T/C endpoint: median tumor weight change, dose: 500.0 mg/kg/injection, schedule: Q01DX001 (ip), vehicle: Klucel (hydroxypropylcellulose) (HPC), evaluated on day 35) 84 % of control; (T/C endpoint: median tumor weight change, dose: 1000.0 mg/kg/injection, schedule: Q01DX001 (ip), vehicle: Klucel (hydroxypropylcellulose) (HPC), evaluated on day 35) 54 % of control; (T/C endpoint: median tumor weight change, dose: 2000.0 mg/kg/injection, schedule: Q01DX001 (ip), vehicle: Klucel (hydroxypropylcellulose) (HPC), evaluated on day 35) 32 % of control.

Turning to `ClC1CSC1`, the T/C (T/C endpoint: median tumor weight change, dose: 125.0 mg/kg/injection, schedule: Q01DX001 (ip), vehicle: saline with Tween-80, evaluated on day 35) is 45 % of control [9 of 10 alive on day 35]. Also, the survivor count (T/C endpoint: median tumor weight change, dose: 250.0 mg/kg/injection, schedule: Q01DX001 (ip), vehicle: saline with Tween-80) is reported as 4 of 10 on day 35; the survivor count (T/C endpoint: median tumor weight change, dose: 500.0 mg/kg/injection, schedule: Q01DX001 (ip), vehicle: saline with Tween-80) is given as 0 of 10 on day 35; the survivor count (T/C endpoint: median tumor weight change, dose: 1000.0 mg/kg/injection, schedule: Q01DX001 (ip), vehicle: saline with Tween-80) was 0 of 10 on day 35; the survivor count (T/C endpoint: median tumor weight change, dose: 2000.0 mg/kg/injection, schedule: Q01DX001 (ip), vehicle: saline with Tween-80) is on record as 0 of 10 on day 35.

The values are drawn from PubChem BioAssay AID220 (DTP/NCI, 2004).
